Among the data in article PMC9274506 are binding values, retold here.

Chains of the proteins cited; added tags and fusions are not shown.
UniProt P46938: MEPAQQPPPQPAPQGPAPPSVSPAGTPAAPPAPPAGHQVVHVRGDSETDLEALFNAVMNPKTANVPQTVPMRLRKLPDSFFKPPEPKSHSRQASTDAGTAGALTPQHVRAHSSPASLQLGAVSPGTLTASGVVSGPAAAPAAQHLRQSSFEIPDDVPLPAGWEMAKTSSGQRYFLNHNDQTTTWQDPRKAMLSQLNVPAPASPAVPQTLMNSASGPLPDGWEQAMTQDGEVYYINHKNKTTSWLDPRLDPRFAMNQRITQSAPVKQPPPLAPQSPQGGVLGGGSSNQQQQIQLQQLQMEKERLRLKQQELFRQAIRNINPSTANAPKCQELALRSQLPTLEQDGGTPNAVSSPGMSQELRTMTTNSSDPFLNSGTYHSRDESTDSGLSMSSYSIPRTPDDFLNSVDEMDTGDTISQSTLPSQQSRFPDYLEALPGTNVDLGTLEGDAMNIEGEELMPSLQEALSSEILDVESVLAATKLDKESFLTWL
UniProt Q02248: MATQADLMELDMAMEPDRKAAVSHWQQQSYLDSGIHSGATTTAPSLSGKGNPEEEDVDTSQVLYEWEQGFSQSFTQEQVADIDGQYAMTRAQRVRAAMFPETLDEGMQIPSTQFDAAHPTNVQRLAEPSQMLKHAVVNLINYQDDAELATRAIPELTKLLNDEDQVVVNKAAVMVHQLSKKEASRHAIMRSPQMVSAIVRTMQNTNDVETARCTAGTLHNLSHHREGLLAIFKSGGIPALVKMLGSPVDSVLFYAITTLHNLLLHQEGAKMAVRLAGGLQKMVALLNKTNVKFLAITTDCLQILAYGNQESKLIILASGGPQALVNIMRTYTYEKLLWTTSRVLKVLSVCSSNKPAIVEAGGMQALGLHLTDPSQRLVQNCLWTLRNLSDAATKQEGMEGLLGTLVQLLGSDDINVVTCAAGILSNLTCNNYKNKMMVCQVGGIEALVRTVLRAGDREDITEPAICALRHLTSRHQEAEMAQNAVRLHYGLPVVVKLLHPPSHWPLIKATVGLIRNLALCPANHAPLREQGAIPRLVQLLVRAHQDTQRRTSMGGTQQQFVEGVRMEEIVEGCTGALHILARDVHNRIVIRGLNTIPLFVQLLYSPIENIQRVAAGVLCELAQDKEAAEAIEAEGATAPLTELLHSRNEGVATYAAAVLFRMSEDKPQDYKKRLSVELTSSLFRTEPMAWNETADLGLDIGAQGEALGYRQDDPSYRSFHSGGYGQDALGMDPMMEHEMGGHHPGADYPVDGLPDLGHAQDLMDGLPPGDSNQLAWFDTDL

No constants are given. Whether binding was seen depends on the method and setting. In cells and extracts the contact can be indirect. Some entries that bind do so weakly or less than the wild type.

The assay has as its target Yes-associated protein (YAP) (mouse (endogenous in PSCs)) (UniProt P46938). The assay can be described thus: co-IP; nuclear and cytoplasmic PSC lysates precipitated with anti-YAP or non-specific IgG for 2 h, after treatment of cells with Yoda1 (1 µM) for 24 h; immunoblot of precipitates. On the technique in general: A western blot detects proteins with antibodies after separation by electrophoresis.

Turning to β-catenin (from UniProt Q02248 1-781), the binding result is “binds”.
